According to PMC5641635:
No constants are given. Whether binding was seen depends on the method and setting. Binding seen in cells or lysates may run through a third protein. Some binding calls cover weakened binding; strength is not graded here. Where a sequence is shown, tags or fusion partners need not be part of it.

Tests used:
[1] = biological target: T1, FLAG-tagged wild-type full-length CDKAL1 (UniProt Q5VV42); experiment: co-IP; FLAG-CDKAL1 wild type, mutant or fragments as bait; 10 mg lysate of transfected HEK293 cells in 50 mM Tris HCl, 150 mM NaCl, 1% Triton X100, 1 mM EDTA; anti-FLAG M2 affinity agarose overnight at 4 °C; immunoblots for MMS19, FAM96B and ANT1
T1 sequence: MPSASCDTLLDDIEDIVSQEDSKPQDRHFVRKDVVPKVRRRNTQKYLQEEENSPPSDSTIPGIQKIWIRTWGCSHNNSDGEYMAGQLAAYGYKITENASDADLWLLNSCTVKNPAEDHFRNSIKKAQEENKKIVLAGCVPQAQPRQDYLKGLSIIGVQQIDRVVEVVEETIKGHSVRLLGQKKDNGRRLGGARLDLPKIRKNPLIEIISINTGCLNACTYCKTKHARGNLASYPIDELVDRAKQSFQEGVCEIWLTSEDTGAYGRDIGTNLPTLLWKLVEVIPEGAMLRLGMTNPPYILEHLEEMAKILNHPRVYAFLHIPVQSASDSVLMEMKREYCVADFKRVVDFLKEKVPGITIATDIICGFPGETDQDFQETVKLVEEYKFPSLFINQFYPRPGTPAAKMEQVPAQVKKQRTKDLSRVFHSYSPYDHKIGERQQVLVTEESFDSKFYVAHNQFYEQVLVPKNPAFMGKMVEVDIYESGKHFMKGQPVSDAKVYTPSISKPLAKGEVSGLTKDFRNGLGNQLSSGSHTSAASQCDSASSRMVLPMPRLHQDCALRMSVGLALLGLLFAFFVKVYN

[2] = biological target: T2, FLAG-tagged CDKAL1 truncation mutant lacking the N terminal 131 amino acids (ΔN) (UniProt Q5VV42); experiment: as above
T2 sequence: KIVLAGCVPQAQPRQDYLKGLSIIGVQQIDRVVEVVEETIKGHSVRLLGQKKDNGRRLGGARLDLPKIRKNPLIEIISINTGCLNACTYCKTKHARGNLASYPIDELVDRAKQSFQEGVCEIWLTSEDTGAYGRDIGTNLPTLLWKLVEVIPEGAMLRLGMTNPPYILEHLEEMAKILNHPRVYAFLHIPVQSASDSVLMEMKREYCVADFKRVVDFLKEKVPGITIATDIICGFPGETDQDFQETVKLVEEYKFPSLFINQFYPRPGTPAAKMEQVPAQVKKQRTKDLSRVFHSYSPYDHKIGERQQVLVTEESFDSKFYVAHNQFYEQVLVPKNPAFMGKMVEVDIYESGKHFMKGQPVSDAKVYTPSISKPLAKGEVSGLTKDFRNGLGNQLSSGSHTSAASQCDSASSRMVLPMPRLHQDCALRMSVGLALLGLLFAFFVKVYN

[3] = biological target: T3, FLAG-tagged CDKAL1 truncation mutant containing only the N terminal 131 amino acids (N) (UniProt Q5VV42); experiment: as above
T3 sequence: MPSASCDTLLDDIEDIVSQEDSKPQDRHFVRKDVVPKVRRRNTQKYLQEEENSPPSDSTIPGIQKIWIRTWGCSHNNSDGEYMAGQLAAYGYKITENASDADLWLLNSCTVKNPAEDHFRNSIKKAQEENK

[4] = biological target: T4, FLAG-tagged CDKAL1 truncation mutant containing only the C-terminal residues 477–579 (C) (UniProt Q5VV42); experiment: as above
T4 sequence: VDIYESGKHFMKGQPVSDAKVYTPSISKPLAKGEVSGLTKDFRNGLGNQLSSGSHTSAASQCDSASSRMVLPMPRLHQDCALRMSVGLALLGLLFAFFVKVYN

[5] = biological target: T5, FLAG-tagged CDKAL1 truncation mutant lacking the C-terminal residues 477–579 (ΔC) (UniProt Q5VV42); experiment: as above
T5 sequence: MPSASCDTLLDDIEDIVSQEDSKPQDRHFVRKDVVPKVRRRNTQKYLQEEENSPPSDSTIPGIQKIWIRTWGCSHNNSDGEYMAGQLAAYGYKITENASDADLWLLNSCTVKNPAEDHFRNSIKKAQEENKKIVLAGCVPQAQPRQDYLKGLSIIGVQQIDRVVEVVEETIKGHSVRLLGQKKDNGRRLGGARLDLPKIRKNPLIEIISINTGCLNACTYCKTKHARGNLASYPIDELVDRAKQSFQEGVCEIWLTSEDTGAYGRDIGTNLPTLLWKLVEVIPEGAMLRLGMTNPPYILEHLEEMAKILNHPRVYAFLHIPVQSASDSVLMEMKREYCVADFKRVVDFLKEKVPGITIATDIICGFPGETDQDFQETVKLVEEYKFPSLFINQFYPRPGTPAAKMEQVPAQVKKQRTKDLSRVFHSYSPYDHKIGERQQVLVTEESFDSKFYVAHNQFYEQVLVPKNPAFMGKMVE

[6] = biological target: T6, FLAG-tagged SLC25A4/ANT1 (UniProt P12235); experiment: co-IP; FLAG-ANT1 as bait; 1.5 mg lysate of transfected HEK293 cells in 50 mM Tris HCl, 150 mM NaCl, 1% Triton X100, 1 mM EDTA; anti-FLAG M2 affinity agarose overnight at 4 °C; Western blot for endogenous CDKAL1
T6 sequence: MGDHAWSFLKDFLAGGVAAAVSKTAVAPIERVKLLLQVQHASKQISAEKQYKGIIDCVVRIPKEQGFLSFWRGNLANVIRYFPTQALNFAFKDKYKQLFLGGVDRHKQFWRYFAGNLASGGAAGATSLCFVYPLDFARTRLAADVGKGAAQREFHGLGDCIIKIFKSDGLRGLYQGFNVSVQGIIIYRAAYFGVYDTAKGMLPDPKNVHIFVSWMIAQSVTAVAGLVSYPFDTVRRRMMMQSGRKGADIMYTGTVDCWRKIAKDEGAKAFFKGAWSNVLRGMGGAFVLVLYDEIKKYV

B1: ANT1/SLC25A4, endogenous (protein, UniProt P12235 1-298)
chain: T6 sequence
[1]
  binding: binds
[2]
  binding: binds
[3]
  binding: binds
[4]
  binding: binds weakly
[5]
  binding: binds

B2: endogenous CDKAL1 (protein, UniProt Q5VV42 1-579)
chain: T1 sequence
[6]
  binding: binds
